Data from US20170247434A1.
These are yes or no findings as the source states them, for the method shown. Binding can be weak; no strength is given.

Molecular target: genogroup V norovirus (Norovirus genogroup V)
Test: direct ELISA, conditions as for FIG. 1A

B1: double A33L/Y100F mutein of Nano-85 (VHH)
VHH: DVQLVESGGGLVQPGGSLRLSCAASGSIFSIYLMGWYRQAPGKQRELVASISSGGGTNYADSVKGRFTISGDNAKNTVYLQMNSLKPEDTAVYYCKREDFSAYAPPSGSRGRGTQVTVSS
- binding: binds
